Reference: article PMC4868323, “Interaction of Toll-Like Receptors with the Molecular Chaperone Gp96 Is Essential for Its Activation of Cytotoxic T Lymphocyte Response” (PLoS ONE, 2016)
No constants are given. Whether binding was seen depends on the method and setting. For some of these results: Binding seen in cells or lysates may run through a third protein. Some results given as binding are weak or reduced against the parent protein; the word gives no strength.

Protein sequences, listed by entry. Tags and fused reporters are not part of them. Lines headed by an entry give the natural chain unless they say otherwise; changes in a name come on top. Residues count along the entry.
UniProt P14625, residues 22-803: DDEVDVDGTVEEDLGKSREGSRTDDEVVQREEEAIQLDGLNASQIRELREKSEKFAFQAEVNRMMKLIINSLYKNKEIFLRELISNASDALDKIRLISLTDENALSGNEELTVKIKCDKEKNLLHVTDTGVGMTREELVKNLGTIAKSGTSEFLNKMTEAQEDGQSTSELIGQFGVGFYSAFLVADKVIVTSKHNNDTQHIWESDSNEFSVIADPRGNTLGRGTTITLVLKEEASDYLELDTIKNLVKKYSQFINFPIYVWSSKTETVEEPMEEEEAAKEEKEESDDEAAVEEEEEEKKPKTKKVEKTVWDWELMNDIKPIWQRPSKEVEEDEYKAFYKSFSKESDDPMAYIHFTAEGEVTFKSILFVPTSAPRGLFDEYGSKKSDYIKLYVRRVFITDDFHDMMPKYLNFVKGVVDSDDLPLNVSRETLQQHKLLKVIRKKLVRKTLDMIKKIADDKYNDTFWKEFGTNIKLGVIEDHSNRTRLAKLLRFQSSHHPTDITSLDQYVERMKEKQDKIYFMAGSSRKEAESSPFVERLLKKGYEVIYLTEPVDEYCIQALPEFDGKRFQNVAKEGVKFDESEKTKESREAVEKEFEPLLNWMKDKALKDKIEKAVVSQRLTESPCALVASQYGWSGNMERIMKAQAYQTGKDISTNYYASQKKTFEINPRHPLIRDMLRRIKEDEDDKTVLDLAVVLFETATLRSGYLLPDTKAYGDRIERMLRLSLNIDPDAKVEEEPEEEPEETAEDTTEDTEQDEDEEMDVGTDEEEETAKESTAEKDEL
UniProt Q9QUN7, residues 25-784: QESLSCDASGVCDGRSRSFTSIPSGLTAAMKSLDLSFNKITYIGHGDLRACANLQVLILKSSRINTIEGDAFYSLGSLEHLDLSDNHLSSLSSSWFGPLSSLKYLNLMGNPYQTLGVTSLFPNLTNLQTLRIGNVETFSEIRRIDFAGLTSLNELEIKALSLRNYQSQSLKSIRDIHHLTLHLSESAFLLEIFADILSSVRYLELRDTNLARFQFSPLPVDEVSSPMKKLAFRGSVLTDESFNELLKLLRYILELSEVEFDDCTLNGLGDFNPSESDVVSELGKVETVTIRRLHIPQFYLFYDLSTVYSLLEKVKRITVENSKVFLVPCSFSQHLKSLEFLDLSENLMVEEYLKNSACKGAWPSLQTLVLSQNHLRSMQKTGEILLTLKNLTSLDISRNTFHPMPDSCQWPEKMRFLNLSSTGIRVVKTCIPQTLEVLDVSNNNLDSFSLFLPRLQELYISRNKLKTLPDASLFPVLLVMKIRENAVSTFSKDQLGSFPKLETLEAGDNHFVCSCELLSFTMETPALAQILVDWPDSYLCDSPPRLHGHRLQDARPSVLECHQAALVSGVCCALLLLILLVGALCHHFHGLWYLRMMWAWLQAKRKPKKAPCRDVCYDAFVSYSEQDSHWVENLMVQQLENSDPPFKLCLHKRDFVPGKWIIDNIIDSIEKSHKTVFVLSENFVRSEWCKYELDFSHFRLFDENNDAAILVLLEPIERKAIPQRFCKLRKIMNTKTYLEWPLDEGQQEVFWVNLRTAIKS
UniProt O60603: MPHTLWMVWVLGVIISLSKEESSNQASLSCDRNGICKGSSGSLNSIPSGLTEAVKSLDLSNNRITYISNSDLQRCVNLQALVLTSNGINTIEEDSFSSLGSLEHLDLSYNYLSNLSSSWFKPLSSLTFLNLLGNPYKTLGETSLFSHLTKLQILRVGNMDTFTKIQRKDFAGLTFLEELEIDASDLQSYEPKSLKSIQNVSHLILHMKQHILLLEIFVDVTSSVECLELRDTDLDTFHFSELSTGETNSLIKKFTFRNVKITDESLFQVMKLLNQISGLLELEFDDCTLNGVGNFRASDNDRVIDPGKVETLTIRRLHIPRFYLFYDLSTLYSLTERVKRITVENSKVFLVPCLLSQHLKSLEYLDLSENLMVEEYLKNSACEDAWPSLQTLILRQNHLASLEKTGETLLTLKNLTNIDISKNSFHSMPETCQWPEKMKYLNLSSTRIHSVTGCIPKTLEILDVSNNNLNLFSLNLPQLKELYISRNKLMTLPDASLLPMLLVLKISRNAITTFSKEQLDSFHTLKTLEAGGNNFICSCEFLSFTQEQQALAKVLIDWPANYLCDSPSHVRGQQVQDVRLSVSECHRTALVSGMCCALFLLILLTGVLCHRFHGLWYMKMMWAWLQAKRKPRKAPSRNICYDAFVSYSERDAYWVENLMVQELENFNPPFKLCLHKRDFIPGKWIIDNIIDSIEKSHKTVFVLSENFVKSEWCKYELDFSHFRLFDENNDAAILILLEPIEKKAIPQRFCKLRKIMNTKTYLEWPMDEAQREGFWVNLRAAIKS
UniProt Q9QUK6, residues 26-835: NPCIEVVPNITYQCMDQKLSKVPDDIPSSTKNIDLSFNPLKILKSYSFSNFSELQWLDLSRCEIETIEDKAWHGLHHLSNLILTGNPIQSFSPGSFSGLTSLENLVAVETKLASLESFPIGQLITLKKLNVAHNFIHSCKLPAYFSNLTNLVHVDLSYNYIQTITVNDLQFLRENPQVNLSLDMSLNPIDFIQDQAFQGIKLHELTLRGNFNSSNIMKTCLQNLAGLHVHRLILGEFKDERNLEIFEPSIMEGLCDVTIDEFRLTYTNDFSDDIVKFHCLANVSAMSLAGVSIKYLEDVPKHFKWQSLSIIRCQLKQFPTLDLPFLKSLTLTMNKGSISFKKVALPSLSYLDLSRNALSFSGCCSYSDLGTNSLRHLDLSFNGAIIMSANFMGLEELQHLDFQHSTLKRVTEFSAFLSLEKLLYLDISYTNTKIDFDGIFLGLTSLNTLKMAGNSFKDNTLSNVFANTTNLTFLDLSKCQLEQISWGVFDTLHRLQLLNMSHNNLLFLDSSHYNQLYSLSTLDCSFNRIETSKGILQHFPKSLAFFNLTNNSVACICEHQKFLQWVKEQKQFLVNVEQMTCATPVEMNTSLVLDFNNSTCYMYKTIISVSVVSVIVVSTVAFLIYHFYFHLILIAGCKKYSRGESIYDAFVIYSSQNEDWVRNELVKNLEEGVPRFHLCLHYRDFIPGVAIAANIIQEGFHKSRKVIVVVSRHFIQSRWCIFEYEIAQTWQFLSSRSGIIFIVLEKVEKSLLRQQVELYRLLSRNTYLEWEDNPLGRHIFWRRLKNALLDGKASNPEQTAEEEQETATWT
UniProt O00206, residues 24-839: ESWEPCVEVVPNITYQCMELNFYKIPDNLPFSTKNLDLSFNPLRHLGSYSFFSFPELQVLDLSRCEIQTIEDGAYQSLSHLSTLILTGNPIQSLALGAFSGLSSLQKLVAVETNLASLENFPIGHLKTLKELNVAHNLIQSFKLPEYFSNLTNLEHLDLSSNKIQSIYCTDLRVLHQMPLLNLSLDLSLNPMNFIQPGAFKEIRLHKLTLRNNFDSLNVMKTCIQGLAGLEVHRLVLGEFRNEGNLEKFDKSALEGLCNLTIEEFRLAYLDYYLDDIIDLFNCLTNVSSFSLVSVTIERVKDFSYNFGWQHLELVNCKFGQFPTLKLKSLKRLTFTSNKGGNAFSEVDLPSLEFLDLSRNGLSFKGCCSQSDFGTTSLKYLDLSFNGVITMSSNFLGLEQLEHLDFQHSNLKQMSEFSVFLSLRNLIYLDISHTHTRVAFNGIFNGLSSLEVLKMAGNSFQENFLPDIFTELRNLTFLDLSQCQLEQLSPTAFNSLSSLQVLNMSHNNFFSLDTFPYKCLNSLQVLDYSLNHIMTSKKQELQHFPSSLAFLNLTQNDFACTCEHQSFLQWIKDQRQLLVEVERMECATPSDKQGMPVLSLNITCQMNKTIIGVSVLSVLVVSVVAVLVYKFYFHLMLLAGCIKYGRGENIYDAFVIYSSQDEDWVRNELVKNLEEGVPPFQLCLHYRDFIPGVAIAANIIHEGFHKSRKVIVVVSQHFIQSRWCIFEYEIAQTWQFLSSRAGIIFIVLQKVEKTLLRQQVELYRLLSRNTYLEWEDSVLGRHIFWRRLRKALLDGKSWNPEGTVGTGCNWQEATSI

What was measured:
[1] = molecular target: recombinant wild-type gp96 (gp96-wt), His-tagged (human) (UniProt P14625); experiment: co-IP; Raw264.7 cells or human macrophage cells incubated with 100 μg/ml purified His-tagged gp96 at 4°C for 4 h; cell lysates precipitated with anti-His Abs or control Ab and protein G beads; TLR2 or TLR4 detected by Western blotting; only the target purified
[2] = molecular target: TLR2, endogenous in RAW 264.7 macrophage cells (mouse (endogenous in RAW 264.7)) (UniProt Q9QUN7); experiment: flow cytometry on cells; FITC-labelled gp96 (100 μg/ml, 4°C, 4 h) on RAW 264.7 cells, HEK293 cells or human macrophage cells; excessive anti-TLR2 or TLR4 Abs added for blocking; only the binder purified
[3] = molecular target: TLR2, endogenous in primary human macrophage cells (human (endogenous in primary macrophage cells)) (UniProt O60603); experiment: as above
[4] = molecular target: TLR4, endogenous in RAW 264.7 macrophage cells (mouse (endogenous in RAW 264.7)) (UniProt Q9QUK6); experiment: as above
[5] = molecular target: TLR4, endogenous in primary human macrophage cells (human (endogenous in primary macrophage cells)) (UniProt O00206); experiment: as above

Substance | binding [1] | binding [2] | binding [3] | binding [4] | binding [5]
TLR2, endogenous in primary human macrophage cells (from UniProt O60603 21-784) (receptor) | binds | – | – | – | –
TLR4, endogenous in RAW 264.7 macrophage cells (from UniProt Q9QUK6 26-835) (receptor) | binds | – | – | – | –
TLR4, endogenous in primary human macrophage cells (from UniProt O00206 24-839) (receptor) | binds | – | – | – | –
recombinant wild-type gp96 (gp96-wt), His-tagged (from UniProt P14625 22-803) | – | binds | binds | binds | binds
